Data reported in patent US20260193366A1 (APOGEE THERAPEUTICS, published 2026).
No constants are given. Whether binding was seen depends on the method and setting. Some entries that bind do so weakly or less than the wild type.

Chains of the proteins cited; added tags and fusions are not shown. Lines headed by an entry give the natural chain unless they say otherwise; changes in a name come on top.
UniProt P78552: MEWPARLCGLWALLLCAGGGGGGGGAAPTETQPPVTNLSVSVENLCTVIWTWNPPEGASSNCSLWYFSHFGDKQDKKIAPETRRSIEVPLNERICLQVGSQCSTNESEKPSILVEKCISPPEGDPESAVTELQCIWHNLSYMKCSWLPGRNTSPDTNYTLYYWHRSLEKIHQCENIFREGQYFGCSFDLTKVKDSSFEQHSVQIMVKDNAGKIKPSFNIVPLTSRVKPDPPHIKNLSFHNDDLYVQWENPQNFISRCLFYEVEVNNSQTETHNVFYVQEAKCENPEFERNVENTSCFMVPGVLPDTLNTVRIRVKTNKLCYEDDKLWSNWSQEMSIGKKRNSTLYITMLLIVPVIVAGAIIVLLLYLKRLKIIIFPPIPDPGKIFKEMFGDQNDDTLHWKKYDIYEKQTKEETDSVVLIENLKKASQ

Legend:
[1] = target: hIL-13Rα/hIL-4Rα on HEK293 cells (human) (UniProt P78552); assay: FACS blocking assay: antibody pre-mixed with biotinylated hIL-4 (0.04 ug/mL), binding to HEK293 cells stably expressing hIL-13Rα and hIL-4Rα, detected with Alexa Fluor 488 streptavidin; y axis % inhibition of IL-4 binding
[2] = target: hIL-13Rα/hIL-4Rα on HEK293 cells (human) (UniProt P78552); assay: FACS blocking assay: antibody pre-mixed with biotinylated hIL-13 (0.05 ug/mL), binding to HEK293 cells stably expressing hIL-13Rα and hIL-4Rα, detected with Alexa Fluor 488 streptavidin; y axis % inhibition of IL-13 binding

- binding [1]: binds
- binding [2]: binds
B1: Construct 31 (mAb443) with IgG1 YTE LALA heavy chain constant region (antibody, V domains shown)
VH: EVQLVESGGGLEQPGGSLRLSCAGSGFTFRDFAMTWVRQAPGKGLEWVSSISGSGGNIYYADSVKGRFTISRDNSKNTLYLQMNSLRAEDTAVYYCAKDRLSVTVRPRYYGLDVWGQGTTVTVSS
VL: DIVMTQSPLSLPVTPGEPASISCRSSQSLLYSNGYNYLDWYLQKSGQSPQLLIYLGSNRASGVPDRFSGSGSGTDFTLKISRVEAEDVGFYYCMQALQAPYTFGQGTKLEIK
